{"source": "patent US10898873B2", "about": "“Lecithin compositions and methods of making and using such lecithin compositions” (Archer Daniels Midland Company, priority 2015, dated 2021)", "assay": "Corn oil recovery from syrup with additive (heating, centrifugation)", "conditions": "300 ppm additive in 40 g CDS syrup, 85° C. 20 minutes, 4500 rpm 4 minutes"}
{"substance": "polyoxyethylene (20) sorbitan monooleate [Polysorbate 80]", "values": [{"measurement": "corn oil separated as a top layer", "setting": "FIG. 9", "result": "small oil layer on the top"}, {"measurement": "corn oil separated as a top layer", "setting": "FIG. 10", "result": "small oil layer on the top"}]}
